Experiment [1] addresses TUB6 cloned into the pGBKT7 vector (yeast two-hybrid) (Arabidopsis thaliana) (UniProt P29514). The experiment can be described thus: two-hybrid.
The target of experiment [2] is TUB6 in the pBiFCt-2in1-NC construct (BiFC) (Arabidopsis thaliana) (UniProt P29514). The experiment can be described thus: split reporter.

Amino acid sequences for entries named in this document (tags omitted).
UniProt P29514, whole entry: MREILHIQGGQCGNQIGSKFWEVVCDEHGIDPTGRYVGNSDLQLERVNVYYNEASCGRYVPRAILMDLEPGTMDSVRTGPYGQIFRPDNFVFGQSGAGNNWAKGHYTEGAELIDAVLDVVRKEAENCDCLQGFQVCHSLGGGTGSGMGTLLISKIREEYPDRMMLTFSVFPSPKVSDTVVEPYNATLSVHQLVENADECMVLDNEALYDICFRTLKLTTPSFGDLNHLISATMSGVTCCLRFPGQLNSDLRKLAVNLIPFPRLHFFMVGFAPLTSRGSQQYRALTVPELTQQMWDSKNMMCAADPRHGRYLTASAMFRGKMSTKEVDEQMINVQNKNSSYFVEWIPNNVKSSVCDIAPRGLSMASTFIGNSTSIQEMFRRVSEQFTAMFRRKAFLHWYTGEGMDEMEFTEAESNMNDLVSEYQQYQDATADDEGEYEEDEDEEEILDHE

No constants are given. Whether binding was seen depends on the method and setting. For some assays here: Binding seen in cells or lysates may run through a third protein. Some binding calls cover weakened binding; strength is not graded here. For some assays here: Where a sequence is shown, tags or fusion partners need not be part of it.

B1: TTL3 fused in the pGADT7 vector (yeast two-hybrid) (protein, UniProt Q9SIN1 1-691)
chain: MSHSRRLSLEPAIDSITGRFRDLQRNDDDVNKPDFRELDLGSPVSTLMPRGSASSSAAATPTSSSGSSGSASGKPSVSSQMAKRLDDAYKSHSGELSSPGSGMPTTTRILKPGHRRSSSTGTPLIFSGSSFTSATSHTSPQGGGSGATSAVSPNTGVLPAGNICPSGRILKTGMASRTSSRTETLCTGTGNYGHGNVVRSGGGGGTSGKAVRVAENGENPEELKRMGNDMYRRGSFSEALSLYDRAILISPGNAAYRSNRAAALTALRRLGEAVKECLEAVRIDPSYSRAHQRLASLYLRLGEAENARRHICFSGQCPDQADLQRLQTLEKHLRRCWEARKIGDWKTAIKETDAAIANGADSSPQLVACKAEAFLRLKQIEDSDFCVSCIPRLDHHYHSQPQVKLFGMVVEAYVLCIQAQVDMALGRFENAVVKAERAAMLDQTNPEVVSVLNNVKMVVRARTRGNELFSSGRFSEACVAYGDGLKQDDSNSVLYCNRAACWYKLGLWEKSVEDCNHALKSQPSYIKALLRRAASYGKLGRWEDAVKDYEFLRRELPGDSEVAESLERAKTVLMNRSQESKSLGFNNEVEAVSTLDKFKKSVALPGVSVFHFKSSSNRQCEEISPFINTLCLRYPLVHFFMVDVEESMALAKAESIRKVPTFKMYKNGDKVKEMVCPSHQFLEDSIKHFLL
As for B1, in experiment [1], the binding entry is “binds”.

B2: TTL3 in the pBiFCt-2in1-NC construct (BiFC) (protein, UniProt Q9SIN1 1-691)
chain: B1 chain
Consider B2, for which, in experiment [2], the binding entry was “binds”.

For the origin of these results see article doi:10.1101/2020.12.21.423430.
